Laboratory results reported in article PMC12378234, “Enzyme-mediated aminoglycoside resistance without target mimicry” (Communications Chemistry, 2025).
Several values for one entry are separate records, joined by “and”; a condition that tells them apart may be missing. Equal entries are not always repeated. Where two headings read alike, the source gives them in different places. This continues a long series; more values of the same kind are listed elsewhere.

System: BL21(DE3) E. coli transformed with pUCP18 vector expressing untagged AAC(3)-XIa
Type: cell-based
Protocol: Ten milliliters of LB containing […] ampicillin were inoculated from glycerol stocks of transformed BL21(DE3) E. coli containing genes expressing the proteins of interest in pUCP18 vectors. These cultures were incubated at 37 °C with 200 rpm agitation for 16 h. Turbidity was measured through OD600 with a NanoDrop OneC Spectrometer (Thermo Scientific). From the initial cultures, secondary 10 mL cultures were prepared with OD600 values of 0.1. These cultures were grown until OD600 values of 0.4–0.6 were reached and diluted to bring all cultures to the same OD600. Cultures were induced with 1 mM Isopropyl β-D-1-thiogalactopyranoside and incubated for 4 h. Two microliters of culture was added to 198 μL of LB with an appropriate aminoglycoside titration concentration. Each titration point was repeated n = 4 times. The formulated 96-well culture plate (Sarstedt) had OD600 measured on a 20-min interval over 17 h using a BioTek Cytation 5 Cell Imaging Multimode Reader, incubating at 37 °C with 282 cpm orbital agitation. Experiments were repeated with fresh cultures on separate days to ensure consistent trends. Data was analyzed in Microsoft Excel and GraphPad5. The remainder of the culture immediately had its RNA isolated for qPCR experiments.

For CN[C@@H]1[C@@H](O)[C@@H](O[C@@H]2[C@@H](O)[C@H](O[C@H]3OC(CN)=CC[C@H]3N)[C@@H](N)C[C@H]2N)OC[C@]1(C)O [Sisomicin, sisomicin], the OD600 growth curve (3 ug/mL Sisomicin, time point 09:19:10) was 0.649 and 0.567 and 0.553 and 0.7, the OD600 growth curve (3 ug/mL Sisomicin, time point 09:39:10) was 0.663 and 0.576 and 0.569 and 0.713 and the OD600 growth curve (3 ug/mL Sisomicin, time point 09:59:10) was 0.673 and 0.58 and 0.572 and 0.722. For the same compound, the OD600 growth curve (3 ug/mL Sisomicin, time point 10:19:10) was 0.681 and 0.584 and 0.574 and 0.73, the OD600 growth curve (3 ug/mL Sisomicin, time point 10:39:10) was 0.688 and 0.59 and 0.577 and 0.737 and the OD600 growth curve (3 ug/mL Sisomicin, time point 10:59:10) was 0.695 and 0.594 and 0.579 and 0.743. The OD600 growth curve (3 ug/mL Sisomicin, time point 11:19:10) was 0.704 and 0.599 and 0.583 and 0.753, the OD600 growth curve (3 ug/mL Sisomicin, time point 11:39:10) was 0.711 and 0.601 and 0.586 and 0.758 and the OD600 growth curve (3 ug/mL Sisomicin, time point 11:59:10) was 0.718 and 0.602 and 0.586 and 0.765. For the same compound, the OD600 growth curve (3 ug/mL Sisomicin, time point 12:19:10) was 0.726 and 0.607 and 0.591 and 0.773, the OD600 growth curve (3 ug/mL Sisomicin, time point 15:19:10) was 0.739 and 0.631 and 0.623 and 0.789 and the OD600 growth curve (3 ug/mL Sisomicin, time point 15:39:10) was 0.731 and 0.629 and 0.62 and 0.782. For the same compound, the OD600 growth curve (3 ug/mL Sisomicin, time point 15:59:10) was 0.728 and 0.621 and 0.619 and 0.782, the OD600 growth curve (3 ug/mL Sisomicin, time point 16:19:10) was 0.717 and 0.616 and 0.619 and 0.767 and the OD600 growth curve (3 ug/mL Sisomicin, time point 16:39:10) was 0.704 and 0.61 and 0.614 and 0.754. For the same compound, the OD600 growth curve (3 ug/mL Sisomicin, time point 16:59:10) was 0.696 and 0.605 and 0.609 and 0.743, the OD600 growth curve (3 ug/mL Sisomicin, time point 17:19:10) was 0.688 and 0.602 and 0.607 and 0.733 and the OD600 growth curve (6 ug/mL Sisomicin, time point 09:19:10) was 0.525 and 0.527 and 0.709 and 0.785. For the same compound, the OD600 growth curve (6 ug/mL Sisomicin, time point 09:39:10) was 0.535 and 0.539 and 0.71 and 0.802, the OD600 growth curve (6 ug/mL Sisomicin, time point 09:59:10) was 0.549 and 0.548 and 0.717 and 0.812 and the OD600 growth curve (6 ug/mL Sisomicin, time point 10:19:10) was 0.557 and 0.555 and 0.722 and 0.825. For the same compound, the OD600 growth curve (6 ug/mL Sisomicin, time point 10:39:10) was 0.567 and 0.564 and 0.727 and 0.833, the OD600 growth curve (6 ug/mL Sisomicin, time point 10:59:10) was 0.578 and 0.57 and 0.732 and 0.845 and the OD600 growth curve (6 ug/mL Sisomicin, time point 11:19:10) was 0.587 and 0.577 and 0.735 and 0.85. For the same compound, the OD600 growth curve (6 ug/mL Sisomicin, time point 11:39:10) was 0.597 and 0.584 and 0.741 and 0.854, the OD600 growth curve (6 ug/mL Sisomicin, time point 11:59:10) was 0.606 and 0.591 and 0.742 and 0.852 and the OD600 growth curve (6 ug/mL Sisomicin, time point 12:19:10) was 0.613 and 0.596 and 0.746 and 0.851. For the same compound, the OD600 growth curve (6 ug/mL Sisomicin, time point 15:39:10) was 0.674 and 0.64 and 0.763 and 0.75, the OD600 growth curve (6 ug/mL Sisomicin, time point 15:59:10) was 0.672 and 0.635 and 0.76 and 0.741 and the OD600 growth curve (6 ug/mL Sisomicin, time point 16:19:10) was 0.676 and 0.639 and 0.765 and 0.733. The OD600 growth curve (6 ug/mL Sisomicin, time point 16:39:10) was 0.677 and 0.641 and 0.765 and 0.725, the OD600 growth curve (6 ug/mL Sisomicin, time point 16:59:10) was 0.676 and 0.638 and 0.764 and 0.717 and the OD600 growth curve (6 ug/mL Sisomicin, time point 17:19:10) was 0.676 and 0.638 and 0.763 and 0.71. The OD600 growth curve (12 ug/mL Sisomicin, time point 09:19:10) was 0.093 and 0.105 and 0.112 and 0.109, the OD600 growth curve (12 ug/mL Sisomicin, time point 09:39:10) was 0.093 and 0.104 and 0.112 and 0.108 and the OD600 growth curve (12 ug/mL Sisomicin, time point 09:59:10) was 0.093 and 0.104 and 0.112 and 0.108. For the same compound, the OD600 growth curve (12 ug/mL Sisomicin, time point 10:19:10) was 0.093 and 0.103 and 0.111 and 0.108, the OD600 growth curve (12 ug/mL Sisomicin, time point 10:39:10) was 0.093 and 0.103 and 0.111 and 0.108 and the OD600 growth curve (12 ug/mL Sisomicin, time point 10:59:10) was 0.093 and 0.102 and 0.111 and 0.107. For the same compound, the OD600 growth curve (12 ug/mL Sisomicin, time point 11:19:10) was 0.093 and 0.102 and 0.11 and 0.106, the OD600 growth curve (12 ug/mL Sisomicin, time point 11:39:10) was 0.093 and 0.102 and 0.11 and 0.106 and the OD600 growth curve (12 ug/mL Sisomicin, time point 11:59:10) was 0.093 and 0.101 and 0.11 and 0.107. For the same compound, the OD600 growth curve (12 ug/mL Sisomicin, time point 12:19:10) was 0.093 and 0.101 and 0.109 and 0.106, the OD600 growth curve (12 ug/mL Sisomicin, time point 15:19:10) was 0.1 and 0.107 and 0.103 and the OD600 growth curve (12 ug/mL Sisomicin, time point 15:39:10) was 0.093 and 0.1 and 0.107 and 0.102. The OD600 growth curve (12 ug/mL Sisomicin, time point 15:59:10) was 0.093 and 0.1 and 0.107 and 0.102, the OD600 growth curve (12 ug/mL Sisomicin, time point 16:19:10) was 0.093 and 0.1 and 0.107 and 0.102 and the OD600 growth curve (12 ug/mL Sisomicin, time point 16:39:10) was 0.093 and 0.1 and 0.106 and 0.102. The OD600 growth curve (12 ug/mL Sisomicin, time point 16:59:10) was 0.093 and 0.1 and 0.106 and 0.102 and the OD600 growth curve (12 ug/mL Sisomicin, time point 17:19:10) was 0.093 and 0.1 and 0.106 and 0.102.
